# Percent effect of library compounds

The values are deposited in ChEMBL (CHEMBL3988442, “University of Dundee, Small-Polar-MMV Screening Library” (2021)).

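Assay of Toxoplasma gondii numbers, read through their beta-galactosidase reporter with a colour substrate. Concentration: 50 µM. Higher reads as fewer parasites (inferred from which compounds were picked for retests). Of about 18,000 compounds tested this way, about 170 (0.94%) reached 50% or more in at least one test.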

Values are the deposited “Percent Effect”, in %.
The record does not define 0% and 100%; most values in the screen are far below 50% and negative numbers occur (in some assays of this library far below -100).
This is an unselected part of the compounds tested.

compound	Percent Effect
COc1cc(F)ccc1NC(=O)c1ccncc1	-6.851%
CSc1ccc(NC(=O)NCCCNC(C)=O)cc1	-0.5951%
N#C[C@@H]1CN2CCC[C@H]2CO1	-12.55%
CCCSCC(=O)NCc1nc(-c2ccncc2)n[nH]1	16%
NCc1ncn(-c2ccccc2)n1	-9.405%
CCCn1ccnc1CNC(=O)c1ccc(F)c(O)c1	10.15%
NC(=O)C1(CNCc2cccc(Br)c2)CCOCC1	-6.082%
COc1ccccc1CNC(=O)N1CCC(O)CC1	18.32%
Cc1nncc(CN)c1C	-0.8399%
COCCCNC(=O)c1ccn(-c2ccc(F)cc2)n1	-6.188%
CC(C)(C)OC(=O)NCC(C)(O)c1ccco1 (stereo unspecified)	-1.185%
Cn1ncnc1COc1ccc(S(N)(=O)=O)cc1	-3.798%
COc1ccc(C(=O)NCC2CCCN2)cc1 (stereo unspecified)	-1.246%
N#Cc1ccc(NC(=O)Cn2ccnc2)cc1	-5.719%
CN(C)CC(=O)NC(C)(C)c1nc2ccccc2n1C	6.605%
CCO[C@H]1CN(CC(=O)NCc2cccs2)C[C@@H]1O	-3.003%
CCNC(=O)Nc1c[nH]nc1C1CCCNC1 (stereo unspecified)	-4.2%
CC(C)OCCN1CCC(C(N)=O)CC1	5.868%
Cc1nsc(N2CCCN(CC(=O)NC3CC3)CC2)n1	-4.576%
OC[C@@H]1CNC[C@H]1C1CCN(Cc2ccco2)CC1	-3.3%
CNS(=O)(=O)c1ccc(C(=O)NC2CCSCC2)cc1	-21.96%
CN(C)Cc1cccc(CNc2ncccc2C#N)c1	10.67%
Cc1ccc(CNCC(C)O)cc1 (stereo unspecified)	1.224%
O=C(NCCO)Nc1cc(F)ccc1N1CCCCC1	2.684%
Cc1ccc(OCCNC(=O)CN2CSCC2=O)cc1	-3.002%
CC(C)(C)OC(=O)NCc1cc(C(N)=O)co1	-10.17%
Cc1cc(CN2C[C@@H](F)C[C@H]2CN)on1	21.07%
CCN(CC)CCNC(=O)C1CCCO1 (stereo unspecified)	-3.188%
CCC1CN(CCCOC)CCN1CCOC (stereo unspecified)	9.141%
NCC1CSc2ccccc21 (stereo unspecified)	0.9982%
COc1ccc2cc(S(=O)(=O)N(C)C)ccc2c1	-8.195%
CC(C)N(CC(N)=O)CC(=O)N(C)Cc1cccs1	-1.293%
CCC[C@H]1CN(S(=O)(=O)N(C)CC)C[C@@H]1N	-3.838%
Cc1cccc(C)c1OC1CN(C(=O)CS(C)(=O)=O)C1	3.188%
CCc1cc(C(=O)NC(CC)c2ncc[nH]2)[nH]n1 (stereo unspecified)	-0.5841%
COC(=O)C1CC2(CC(N)C2)C1 (stereo unspecified)	-0.8295%
NCC1(CC(N)=O)CCCCC1	-4.731%
C[C@@]1(O)CCN(Cc2cncn2C2CCCC2)C[C@@H]1O	0.2468%
COCC(=O)N[C@H](C(=O)NCc1ccoc1C)C(C)C	6.435%
CC1(C#N)CCN(Cc2ccc(OCCO)cc2)CC1	0.9252%
NCC(=O)c1ccncc1	-6.113%
NCC1CCCN(c2ncccn2)C1 (stereo unspecified)	3.495%
COCc1ccc(C(=O)N2C[C@H]3CNC[C@H]3C2)o1	-5.682%
CCS(=O)(=O)NCCCNS(=O)(=O)c1ccc(C)cc1	22.48%
CN1C[C@H]2CNC[C@@]2(C(=O)NCCCn2ccnn2)C1	15.17%
Cc1ccc(NC(=O)N[C@@H]2CNCC[C@H]2O)cc1F	-6.939%
Cn1nccc1CNC(=O)c1cc2c([nH]c1=O)CCC2	20.03%
CC(C)N(CCOc1ccccc1C#N)CC(N)=O	-0.3577%
O=C(NC1CC1)c1ccc2c(c1)CCO2	4.417%
Cn1nnnc1SCCC(=O)Nc1ccc(F)cc1	-1.696%
Cc1ccccc1NC(=O)CCN1CCN(C)CC1	-26.18%
O=c1ccc(F)cn1Cc1cnn(-c2ccccc2)n1	-4.551%
CCN(C(=O)N1CCC1)c1ccc(C#N)cn1	-0.3878%
Cc1ccc(S(=O)(=O)Nc2ccncc2)cc1C	3.969%
CC(Sc1ncc2ccccn12)C(=O)NC(N)=O (stereo unspecified)	-15.16%
O=C(NCc1ccccc1OCC1CC1)c1c[nH]nn1	15.57%
CN(C)S(=O)(=O)CCCN1CCC(c2cc[nH]n2)CC1	6.294%
Cc1cc(NC(=O)CN2CCC(C)CC2)n(C)n1	42.42%
Cc1cc(NC(C)c2ccco2)nc(N)n1 (stereo unspecified)	-14.96%

Repeated from the top, 5 entries:

{"compound": "COc1cc(F)ccc1NC(=O)c1ccncc1", "Percent Effect": -6.851}
{"compound": "CSc1ccc(NC(=O)NCCCNC(C)=O)cc1", "Percent Effect": -0.5951}
{"compound": "N#C[C@@H]1CN2CCC[C@H]2CO1", "Percent Effect": -12.55}
{"compound": "CCCSCC(=O)NCc1nc(-c2ccncc2)n[nH]1", "Percent Effect": 16}
{"compound": "NCc1ncn(-c2ccccc2)n1", "Percent Effect": -9.405}